Laboratory results published in PubChem BioAssay AID758 (NMMLSC, 2007).
About 110 (0.058%) of roughly 190,000 compounds were called active. The shares of active, inactive and inconclusive entries below differ from those in the screen.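 How the source made its calls: active means fluorescent GTP binding to Rab7 beads changed by at least 20 points from the 100% baseline, either direction, mostly lower; inconclusive means compound itself probably fluorescent, or too few beads counted; inactive means the rest.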

Each compound was assayed on Rab7 GTPase wild type (dog), Bodipy-FL-GTP binding (assay: modulators of GTP binding to Rab7, primary screen, biochemical, wildtype, multiplex bead flow cytometry (AID 758;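 further: median green fluorescence of bound Bodipy-FL-GTP per Rab7 bead population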)). Settings: GST-Rab7 beads, fluorescent GTP binding, at 10 µM, actives lie on both sides, untreated = 100%, excess cold GTP = 0%.
`Cc1sc2ncnc(NC(C)C(=O)O)c2c1C` (centres undefined) was tested, and the GTP binding activity (percent of control) was inconclusive: 94%. `CCCc1cc(C(N)=O)c(NC(=O)C2CCCO2)s1` (centres undefined) was tested, and the GTP binding activity (percent of control) was inconclusive: 101%. With `Cc1ccccc1Cn1c(CN2CCN(C(=O)c3ccco3)CC2)nc2c1c(=O)n(C)c(=O)n2C` the GTP binding activity (percent of control) was inconclusive: 93%. For `O=C(N/N=C/c1c(O)n(-c2ccccc2Cl)c(=O)c2ccccc12)c1cccnc1`, the GTP binding activity (percent of control) was inactive: 94%. For `CC(=O)N1CCC(=O)Nc2ccc([N+](=O)[O-])cc21`, the GTP binding activity (percent of control) was inactive: 97%. With `COc1cnc(-c2ccccn2)nc1Sc1ccc(Cl)cc1` the GTP binding activity (percent of control) was inconclusive: 100%. With `CCCCNC(=O)c1cc([N+](=O)[O-])[nH]n1` the GTP binding activity (percent of control) was inactive: 104%. In the case of `O=C(CO/N=C1\CCCc2nonc21)Nc1ccc(Br)cc1`, the GTP binding activity (percent of control) is reported as inconclusive: 96%. In the case of `CC1(C)C2CC=C(/C=N/NC(=O)C3CC3)C1C2` (centres undefined), the GTP binding activity (percent of control) is reported as inactive: 105%. For `CCOC(=O)c1cc2sc(C)cc2n1CC(=O)Nc1ccc2c(c1)OCCO2`, the GTP binding activity (percent of control) was inconclusive: 96%. For `Cc1[nH]n(-c2ccc([N+](=O)[O-])cc2)c(=O)c1C=NCCN1CCN(C(=O)c2cccc(F)c2)CC1`, the GTP binding activity (percent of control) was inconclusive: 108%. For `C/C(=N\N=C1\NC(=O)C(CC(=O)Nc2ccc(Cl)cc2)S1)c1ccco1` (centres undefined), the GTP binding activity (percent of control) was inconclusive: 91%. For `COc1ccccc1OCC(=O)NCCSCc1cccc(Cl)c1`, the GTP binding activity (percent of control) was inactive: 98%. `O=c1[nH]c2sc3c(c2c2nncn12)CCCC3` was tested, and the GTP binding activity (percent of control) was inactive: 85%. For `Cc1cc(C)cc(NC(=O)c2c(C)nc3ccccn23)c1`, the GTP binding activity (percent of control) was inactive: 105%. `CCOC(=O)c1c[nH]c2nc(C)ccc2c1=O` was tested, and the GTP binding activity (percent of control) was inconclusive: 98%. For `CCn1c(=N)c(S(=O)(=O)c2ccc(C)cc2)cc2c(=O)n3ccccc3nc21`, the GTP binding activity (percent of control) was inactive: 95%. In the case of `C=C(C)Cn1c(-c2ccncc2)n[nH]c1=S`, the GTP binding activity (percent of control) is reported as inconclusive: 91%. In the case of `COc1ccc(-c2ncncc2-c2csc(C)n2)c(O)c1OC`, the GTP binding activity (percent of control) is reported as inconclusive: 104%. In the case of `COc1ccccc1N1CCN(C(c2ccccc2Cl)c2nnnn2C(C)(C)C)CC1` (centres undefined), the GTP binding activity (percent of control) is reported as inconclusive: 89%. In the case of `CCOC(=O)CCc1c(C)nc(SCC(=O)O)c(C#N)c1C`, the GTP binding activity (percent of control) is reported as inconclusive: 106%. With `COc1ccc(-c2nnc(SCC(=O)N3CCCC(C)C3)o2)c(OC)c1` (centres undefined) the GTP binding activity (percent of control) was inconclusive: 103%. `COc1ccc(N2CCN(Cc3ccc(Br)s3)CC2)cc1` was tested, and the GTP binding activity (percent of control) was inconclusive: 102%. With `CCc1ccc(OCCOCC(O)CNC2CCCC2)cc1` (centres undefined) the GTP binding activity (percent of control) was inactive: 104%. For `C=C(C)COc1ccc(-c2n[nH]c(C)c2-c2ccc(Br)cc2)c(O)c1`, the GTP binding activity (percent of control) was inactive: 95%. With `N#Cc1c(N)oc(-c2ccco2)c1-c1ccco1` the GTP binding activity (percent of control) was inconclusive: 91%. In the case of `O=C(COC(=O)c1cccs1)NC1CCCCC1`, the GTP binding activity (percent of control) is reported as inconclusive: 107%. With `Cn1nc(C(F)(F)F)c(C(=O)Nc2cccc(Cl)c2)c1Cl` the GTP binding activity (percent of control) was inconclusive: 97%. For `O=C(CSc1ncc(-c2ccc(F)cc2)n1Cc1ccco1)Nc1ccc2c(c1)OCO2`, the GTP binding activity (percent of control) was inconclusive: 89%. In the case of `CCOC(=O)C1(CCc2ccccc2)CCN(Cc2cccc3nccnc23)CC1`, the GTP binding activity (percent of control) is reported as inactive: 101%. With `COc1cc(C(=O)NNC(=S)Nc2ccc(S(N)(=O)=O)cc2)cc(OC)c1OC` the GTP binding activity (percent of control) was inactive: 101%. `CCc1ccc2[nH]c3nc(SCc4nnc(-c5ccc(C)cc5)o4)nnc3c2c1` was tested, and the GTP binding activity (percent of control) was inconclusive: 101%. In the case of `Cc1cc(C)cc(N(C(=O)CCC(=O)Nc2cc(C)on2)C(C(=O)NC2CCCC2)c2ccco2)c1` (centres undefined), the GTP binding activity (percent of control) is reported as inconclusive: 97%. For `CC(=O)CSc1nnc(-c2ccncc2)n1C`, the GTP binding activity (percent of control) was inconclusive: 99%. With `Cn1c(=O)[nH]c(=O)c2c1nc(Br)n2CC(O)COc1ccc(Cl)cc1` (centres undefined) the GTP binding activity (percent of control) was inactive: 103%. In the case of `CC1(/[N+]([O-])=C/c2ccccc2F)CCCCC1=O` (centres undefined), the GTP binding activity (percent of control) is reported as inactive: 103%. For `O=C(N/N=C/c1cccc(C(F)(F)F)c1)C1CCN(c2ncc(C(F)(F)F)cc2Cl)CC1`, the GTP binding activity (percent of control) was inactive: 100%. With `COc1cccc(-n2c(SCC(=O)NC3CCCCC3)nc3n[nH]c(C)c3c2=N)c1` the GTP binding activity (percent of control) was inconclusive: 90%. `COC(=O)Cc1csc(NC(=O)CSc2nnc3ccccn23)n1` was tested, and the GTP binding activity (percent of control) was inconclusive: 96%. In the case of `N#Cc1c(OCC(=O)c2ccccc2)nc2c(c1-c1ccco1)CCc1ccccc1-2`, the GTP binding activity (percent of control) is reported as inconclusive: 103%. With `OCCC1CN(Cc2cnc(-c3cccc4ccccc34)nc2)CCN1C1CCCCC1` (centres undefined) the GTP binding activity (percent of control) was inactive: 98%. In the case of `CC(=O)NC1C(Oc2ccc3c(C)cc(=O)oc3c2)OC(COC(C)=O)C(OC(C)=O)C1OC(C)=O` (centres undefined), the GTP binding activity (percent of control) is reported as inactive: 98%. In the case of `COc1ccc(C(=O)NC(=S)NNC(=O)CNC(=O)C2CCCCC2)cc1`, the GTP binding activity (percent of control) is reported as inconclusive: 87%. With `O=C1C=C(N(CCO)Cc2ccccc2)c2ccccc2C1=O` the GTP binding activity (percent of control) was inconclusive: 105%. For `Cn1cc([C@@H]2C[C@H]3CN(Cc4cccc(Cl)c4)C(=O)[C@]34CCCN24)c2ccccc21`, the GTP binding activity (percent of control) was inconclusive: 114%. In the case of `Nc1c(C(=O)NC2CC2)sc2nc3c(c(-c4ccco4)c12)CC/C3=C/c1ccco1`, the GTP binding activity (percent of control) is reported as inconclusive: 88%. For `COc1ccc(N2CCN(C(=O)c3ccc4c(=O)n(CC5CCCO5)c(=O)[nH]c4c3)CC2)cc1` (centres undefined), the GTP binding activity (percent of control) was inconclusive: 102%. For `CC(=O)Nc1ccc(/C=N/NC(=O)CCN2CCN(c3ccccc3)CC2)cc1`, the GTP binding activity (percent of control) was inactive: 88%. With `Cc1cc(C)nc(SCC(=O)c2c(N)n(C)c(=O)n(C)c2=O)n1` the GTP binding activity (percent of control) was inconclusive: 97%. `CC(=O)Cn1nnc2sc(-c3ccccc3)cc2c1=O` was tested, and the GTP binding activity (percent of control) was inactive: 99%. For `CCN(CC)CC(=O)Nc1ccc2c(c1)Nc1ccccc1CC2`, the GTP binding activity (percent of control) was inconclusive: 101%. With `CC(=O)Nc1ccc(/C=C/c2ccc3c([N+](=O)[O-])cccc3n2)cc1` the GTP binding activity (percent of control) was inactive: 100%. For `Cc1cc(C)n2nc(SCCOc3ccccc3F)nc2n1`, the GTP binding activity (percent of control) was inactive: 92%. For `Cn1cnnc1SCC(=O)Nc1ccc(N2CCOCC2)cc1`, the GTP binding activity (percent of control) was inactive: 98%. `Cn1c(NC(=S)Nc2ccccc2)nc2ccccc21` was tested, and the GTP binding activity (percent of control) was inconclusive: 116%. For `Cn1cccc1/C=C1\SC(=S)N(NC(=O)c2cccc(Cl)c2)C1=O`, the GTP binding activity (percent of control) was inconclusive: 95%. In the case of `CCCN(CCC)CCCNC(=S)Nc1ccc2nc(N3CCCC3)cc(C)c2c1`, the GTP binding activity (percent of control) is reported as inconclusive: 98%. With `Cc1cccc(C)c1OCc1n[nH]c(=S)n1N` the GTP binding activity (percent of control) was inconclusive: 97%. In the case of `FC(F)(F)c1cccc(OCCN2CCN(Cc3ccccc3)CC2)c1`, the GTP binding activity (percent of control) is reported as inactive: 97%.
